Some peptides are written in HELM: one residue between dots, names in brackets for other building blocks, links after the first $.

The nature of the series: peptide made by a vendor. Particulars: whole synthesis.

Regarding “PEPTIDE1{L.L.G.D.F.F.R.K.S.K.E.K.I.G.K.E.F.K.R.I.V.Q.R.I.K.D.F.L.R.N.L.V.P.R.T.E.S.C}$$$$V2.0”, the “purity (crude or final not stated)” value worked out at 96%.

The values above are taken from patent US20230173135A1 (priority 2020, published 2023).
